In patent US11000514B2, “Antifungal compounds” (Duke University, priority 2014, dated 2021):
Entries after “also recorded” stand apart in the source; their conditions may differ. Some results were stated once for a whole list of compounds, not compound by compound.

Test system: IL2
Experiment: IL2 IC50 determination
Type: cell-based
Settings: range in words

SMILES	IL2 IC50
CO[C@H]1C[C@@H](C)C/C(C)=C/[C@@H](C/C=C/C(C)C)C(=O)C[C@H](O)[C@@H](C)[C@@H](/C(C)=C/[C@@H]2CC[C@@H](O)[C@H](OC)C2)OC(=O)[C@@H]2CCCCN2C(=O)C(=O)[C@]2(O)O[C@H]1[C@@H](OC)C[C@H]2C [Compound 74]	micromolar
CC/C(C)=C/C[C@@H]1/C=C(\C)C[C@H](C)C[C@H](OC)[C@H]2O[C@@](O)(C(=O)C(=O)N3CCCC[C@H]3C(=O)O[C@H](/C(C)=C/[C@@H]3CC[C@@H](O)[C@H](OC)C3)[C@H](C)[C@@H](O)CC1=O)[C@H](C)C[C@@H]2OC [Compound 75]	subnanomolar
CO[C@H]1C[C@@H](C)C/C(C)=C/[C@@H](CC=C(C)C)C(=O)C[C@H](O)[C@@H](C)[C@@H](/C(C)=C/[C@@H]2CC[C@@H](O)[C@H](OC)C2)OC(=O)[C@@H]2CCCCN2C(=O)C(=O)[C@]2(O)O[C@H]1[C@@H](OC)C[C@H]2C [Compound 76]	subnanomolar
CCC/C(C)=C/C[C@@H]1/C=C(\C)C[C@H](C)C[C@H](OC)[C@H]2O[C@@](O)(C(=O)C(=O)N3CCCC[C@H]3C(=O)O[C@H](/C(C)=C/[C@@H]3CC[C@@H](O)[C@H](OC)C3)[C@H](C)[C@@H](O)CC1=O)[C@H](C)C[C@@H]2OC [Compound 77]	nanomolar
COC(=O)/C=C/C[C@@H]1/C=C(\C)C[C@H](C)C[C@H](OC)[C@H]2O[C@@](O)(C(=O)C(=O)N3CCCC[C@H]3C(=O)O[C@H](/C(C)=C/[C@@H]3CC[C@@H](O)[C@H](OC)C3)[C@H](C)[C@@H](O)CC1=O)[C@H](C)C[C@@H]2OC [Compound 78]	nanomolar
CO[C@H]1C[C@@H](C)C/C(C)=C/[C@@H](C/C=C/C2CCCC2)C(=O)C[C@H](O)[C@@H](C)[C@@H](/C(C)=C/[C@@H]2CC[C@@H](O)[C@H](OC)C2)OC(=O)[C@@H]2CCCCN2C(=O)C(=O)[C@]2(O)O[C@H]1[C@@H](OC)C[C@H]2C [Compound 79]	nanomolar
CO[C@H]1C[C@@H](C)C/C(C)=C/[C@@H](C/C=C/CNC2CCCCC2)C(=O)C[C@H](O)[C@@H](C)[C@@H](/C(C)=C/[C@@H]2CC[C@@H](O)[C@H](OC)C2)OC(=O)[C@@H]2CCCCN2C(=O)C(=O)[C@]2(O)O[C@H]1[C@@H](OC)C[C@H]2C [Compound 80]	micromolar
CC[C@@H]1/C=C(\C)[C@@H](OC(=O)CC(=O)O)[C@H](C)C[C@H](OC)[C@H]2O[C@@](O)(C(=O)C(=O)N3CCCC[C@H]3C(=O)O[C@H](/C(C)=C/[C@@H]3CC[C@@H](O)[C@H](OC)C3)[C@H](C)[C@@H](O)CC1=O)[C@H](C)C[C@@H]2OC [Compound 81]	nanomolar
CO[C@H]1C[C@@H](C)C/C(C)=C/[C@@H](C/C=C/c2ccccc2)C(=O)C[C@H](O)[C@@H](C)[C@@H](/C(C)=C/[C@@H]2CC[C@@H](O)[C@H](OC)C2)OC(=O)[C@@H]2CCCCN2C(=O)C(=O)[C@]2(O)O[C@H]1[C@@H](OC)C[C@H]2C [Compound 82]	nanomolar
CO[C@H]1C[C@@H](C)C/C(C)=C/[C@@H](CC(C)=O)C(=O)C[C@H](O)[C@@H](C)[C@@H](/C(C)=C/[C@@H]2CC[C@@H](O)[C@H](OC)C2)OC(=O)[C@@H]2CCCCN2C(=O)C(=O)[C@]2(O)O[C@H]1[C@@H](OC)C[C@H]2C [Compound 83]	nanomolar
CO[C@H]1C[C@@H](C)C/C(C)=C/[C@@H](C/C=C/C(=O)OC(C)C)C(=O)C[C@H](O)[C@@H](C)[C@@H](/C(C)=C/[C@@H]2CC[C@@H](O)[C@H](OC)C2)OC(=O)[C@@H]2CCCCN2C(=O)C(=O)[C@]2(O)O[C@H]1[C@@H](OC)C[C@H]2C [Compound 84]	nanomolar
C=CC[C@@H]1/C=C(\C)C[C@H](C)C[C@H](OC)[C@H]2O[C@@](O)(C(=O)C(=O)N3CCCC[C@H]3C(=O)O[C@H](/C(C)=C/[C@@H]3CC[C@@H](O)[C@H](OC)C3)[C@H](C)/C=C/C1=O)[C@H](C)C[C@@H]2OC [Compound 85]	nanomolar
C=CC[C@@H]1/C=C(\C)C[C@H](C)C[C@H](OC)[C@H]2O[C@@](O)(C(=O)C(=O)N3CCCC[C@H]3C(=O)O[C@H](/C(C)=C/[C@@H]3CC[C@@H](O)[C@H](OC)C3)[C@H](C)[C@@H](O)C/C1=N/O)[C@H](C)C[C@@H]2OC [Compound 86]	nanomolar
C=CC[C@@H]1/C=C(\C)C[C@H](C)C[C@H](OC)[C@H]2O[C@@](O)(C(=O)C(=O)N3CCCC[C@H]3C(=O)O[C@H](/C(C)=C/[C@@H]3CC[C@@H](O)[C@H](OC)C3)[C@H](C)[C@@H](O)C/C1=N/OC)[C@H](C)C[C@@H]2OC [Compound 88]	nanomolar
CO[C@H]1C[C@@H](C)C/C(C)=C/[C@@H](C/C=C/C(=O)OC(C)(C)C)C(=O)C[C@H](O)[C@@H](C)[C@@H](/C(C)=C/[C@@H]2CC[C@@H](O)[C@H](OC)C2)OC(=O)[C@@H]2CCCCN2C(=O)C(=O)[C@]2(O)O[C@H]1[C@@H](OC)C[C@H]2C [Compound 90]	nanomolar
CO[C@H]1C[C@@H](C)C/C(C)=C/[C@@H](C/C=C/CCC(C)C)C(=O)C[C@H](O)[C@@H](C)[C@@H](/C(C)=C/[C@@H]2CC[C@@H](O)[C@H](OC)C2)OC(=O)[C@@H]2CCCCN2C(=O)C(=O)[C@]2(O)O[C@H]1[C@@H](OC)C[C@H]2C [Compound 91]	nanomolar

SMILES	IL2 IC50
COC(/C=C/C[C@@H]1/C=C(\C)C[C@H](C)C[C@H](OC)[C@H]2O[C@@](O)(C(=O)C(=O)N3CCCC[C@H]3C(=O)O[C@H](/C(C)=C/[C@@H]3CC[C@@H](O)[C@H](OC)C3)[C@H](C)[C@@H](O)CC1=O)[C@H](C)C[C@@H]2OC)OC [Compound 96]	nanomolar
CO[C@H]1C[C@@H](C)C/C(C)=C/[C@@H](C/C=C/CC(C)OS(=O)(=O)c2ccc(C)cc2)C(=O)C[C@H](O)[C@@H](C)[C@@H](/C(C)=C/[C@@H]2CC[C@@H](O)[C@H](OC)C2)OC(=O)[C@@H]2CCCCN2C(=O)C(=O)[C@]2(O)O[C@H]1[C@@H](OC)C[C@H]2C (some centres unmarked) [Compound 97]	nanomolar
C=CC[C@@H]1/C=C(\C)C[C@H](C)C[C@H](OC)[C@H]2O[C@@](O)(C(=O)C(=O)N3CCCC[C@H]3C(=O)O[C@H](/C(C)=C/[C@@H]3CC[C@@H](O)[C@H](OC)C3)[C@H](C)[C@@H](O)C/C1=N/N=C(C)C)[C@H](C)C[C@@H]2OC [Compound 98]	nanomolar
C=CC[C@@H]1/C=C(\C)C[C@H](C)C[C@H](OC)[C@H]2O[C@@](O)(C(=O)C(=O)N3CCCC[C@H]3C(=O)O[C@H](/C(C)=C/[C@@H]3CC[C@@H](O)[C@H](OC)C3)[C@H](C)[C@@H](O)C/C1=N/NCCO)[C@H](C)C[C@@H]2OC [Compound 99]	nanomolar
C=C1C[C@H](O)[C@@H](C)[C@@H](/C(C)=C/[C@@H]2CC[C@@H](O)[C@H](OC)C2)OC(=O)[C@@H]2CCCCN2C(=O)C(=O)[C@]2(O)O[C@H]([C@@H](OC)C[C@@H](C)C/C(C)=C/[C@H]1CC)[C@@H](OC)C[C@H]2C [Compound 100]	nanomolar
C=CC[C@@H]1/C=C(\C)C[C@H](C)C[C@H](OC)[C@H]2O[C@@](O)(C(=O)C(=O)N3CCCC[C@H]3C(=O)O[C@H](/C(C)=C/[C@@H]3CC[C@@H](O)[C@H](OC)C3)[C@H](C)[C@@H](O)C/C1=N/OCCO)[C@H](C)C[C@@H]2OC [Compound 101]	nanomolar
C=CC[C@@H]1/C=C(\C)C[C@H](C)C[C@H](OC)[C@H]2O[C@@](O)(C(=O)C(=O)N3CCCC[C@H]3C(=O)O[C@H](/C(C)=C/[C@@H]3CC[C@@H](O)[C@H](OC)C3)[C@H](C)/C=C/C1=N/NCC)[C@H](C)C[C@@H]2OC [Compound 102]	nanomolar
C=CC[C@@H]1/C=C(\C)C[C@H](C)C[C@H](OC)[C@H]2O[C@@](O)(C(=O)C(=O)N3CCCC[C@H]3C(=O)O[C@H](/C(C)=C/[C@@H]3CC[C@@H](O)[C@H](OC)C3)[C@H](C)[C@@H](O)C/C1=N/NCC)[C@H](C)C[C@@H]2OC [Compound 103]	subnanomolar
CC/C(C)=C1/C[C@H](O)[C@@H](C)[C@@H](/C(C)=C/[C@@H]2CC[C@@H](O)[C@H](OC)C2)OC(=O)[C@@H]2CCCCN2C(=O)C(=O)[C@]2(O)O[C@H]([C@@H](OC)C[C@@H](C)C/C(C)=C/[C@H]1CC)[C@@H](OC)C[C@H]2C [Compound 104]	nanomolar
CC[C@@H]1/C=C(\C)C[C@H](C)C[C@H](OC)[C@H]2O[C@@](O)(C(=O)C(=O)N3CCCC[C@H]3C(=O)O[C@H](/C(C)=C/[C@@H]3CC[C@@H](O)[C@H](OC)C3)[C@H](C)[C@@H]3C[C@@H]1OC(C)(C)O3)[C@H](C)C[C@@H]2OC [Compound 105]	nanomolar
CC[C@@H]1/C=C(\C)C[C@H](C)C[C@H](OC)[C@H]2O[C@@](O)(C(=O)C(=O)N3CCCC[C@H]3C(=O)O[C@H](/C(C)=C/[C@@H]3CC[C@@H](O)[C@H](OC)C3)[C@H](C)[C@@H](O)C/C1=N/OC(C)(C)C)[C@H](C)C[C@@H]2OC [Compound 106]	nanomolar
CC[C@@H]1/C=C(\C)C[C@H](C)C[C@H](OC)[C@H]2O[C@@](O)(C(=O)C(=O)N3CCCC[C@H]3C(=O)O[C@H](/C(C)=C/[C@@H]3CC[C@@H](O)[C@H](OC)C3)[C@H](C)[C@@H](O)C/C1=N/OCC(=O)O)[C@H](C)C[C@@H]2OC [Compound 109]	nanomolar
CC[C@@H]1/C=C(\C)C[C@H](C)C[C@H](OC)[C@H]2O[C@@](O)(C(=O)C(=O)N3CCCC[C@H]3C(=O)O[C@H](/C(C)=C/[C@@H]3CC[C@@H](O)[C@H](OC)C3)[C@H](C)[C@@H](O)C/C1=N/OS(=O)(=O)O)[C@H](C)C[C@@H]2OC [Compound 111]	nanomolar
CC[C@@H]1/C=C(\C)C[C@H](C)C[C@H](OC)[C@H]2O[C@@](O)(C(=O)C(=O)N3CCCC[C@H]3C(=O)O[C@H](/C(C)=C/[C@@H]3CC[C@@H](O)[C@H](OC)C3)[C@H](C)[C@@H](O)C/C1=N/OC(C)C)[C@H](C)C[C@@H]2OC [Compound 112]	micromolar; also recorded: nanomolar
CC[C@@H]1/C=C(\C)C[C@H](C)C[C@H](OC)[C@H]2O[C@@](O)(C(=O)C(=O)N3CCCC[C@H]3C(=O)O[C@H](/C(C)=C/[C@@H]3CC[C@@H](O)[C@H](OC)C3)[C@H](C)[C@@H](O)C/C1=N/OCc1ccc(Cl)cc1Cl)[C@H](C)C[C@@H]2OC [Compound 113]	nanomolar
CCCCO/N=C1/C[C@H](O)[C@@H](C)[C@@H](/C(C)=C/[C@@H]2CC[C@@H](O)[C@H](OC)C2)OC(=O)[C@@H]2CCCCN2C(=O)C(=O)[C@]2(O)O[C@H]([C@@H](OC)C[C@@H](C)C/C(C)=C/[C@H]1CC)[C@@H](OC)C[C@H]2C [Compound 114]	nanomolar
